This is an account of results in publication PMC6761150.

By UniProt entry, the sequences of proteins in these tests, tags left out.
UniProt P45481: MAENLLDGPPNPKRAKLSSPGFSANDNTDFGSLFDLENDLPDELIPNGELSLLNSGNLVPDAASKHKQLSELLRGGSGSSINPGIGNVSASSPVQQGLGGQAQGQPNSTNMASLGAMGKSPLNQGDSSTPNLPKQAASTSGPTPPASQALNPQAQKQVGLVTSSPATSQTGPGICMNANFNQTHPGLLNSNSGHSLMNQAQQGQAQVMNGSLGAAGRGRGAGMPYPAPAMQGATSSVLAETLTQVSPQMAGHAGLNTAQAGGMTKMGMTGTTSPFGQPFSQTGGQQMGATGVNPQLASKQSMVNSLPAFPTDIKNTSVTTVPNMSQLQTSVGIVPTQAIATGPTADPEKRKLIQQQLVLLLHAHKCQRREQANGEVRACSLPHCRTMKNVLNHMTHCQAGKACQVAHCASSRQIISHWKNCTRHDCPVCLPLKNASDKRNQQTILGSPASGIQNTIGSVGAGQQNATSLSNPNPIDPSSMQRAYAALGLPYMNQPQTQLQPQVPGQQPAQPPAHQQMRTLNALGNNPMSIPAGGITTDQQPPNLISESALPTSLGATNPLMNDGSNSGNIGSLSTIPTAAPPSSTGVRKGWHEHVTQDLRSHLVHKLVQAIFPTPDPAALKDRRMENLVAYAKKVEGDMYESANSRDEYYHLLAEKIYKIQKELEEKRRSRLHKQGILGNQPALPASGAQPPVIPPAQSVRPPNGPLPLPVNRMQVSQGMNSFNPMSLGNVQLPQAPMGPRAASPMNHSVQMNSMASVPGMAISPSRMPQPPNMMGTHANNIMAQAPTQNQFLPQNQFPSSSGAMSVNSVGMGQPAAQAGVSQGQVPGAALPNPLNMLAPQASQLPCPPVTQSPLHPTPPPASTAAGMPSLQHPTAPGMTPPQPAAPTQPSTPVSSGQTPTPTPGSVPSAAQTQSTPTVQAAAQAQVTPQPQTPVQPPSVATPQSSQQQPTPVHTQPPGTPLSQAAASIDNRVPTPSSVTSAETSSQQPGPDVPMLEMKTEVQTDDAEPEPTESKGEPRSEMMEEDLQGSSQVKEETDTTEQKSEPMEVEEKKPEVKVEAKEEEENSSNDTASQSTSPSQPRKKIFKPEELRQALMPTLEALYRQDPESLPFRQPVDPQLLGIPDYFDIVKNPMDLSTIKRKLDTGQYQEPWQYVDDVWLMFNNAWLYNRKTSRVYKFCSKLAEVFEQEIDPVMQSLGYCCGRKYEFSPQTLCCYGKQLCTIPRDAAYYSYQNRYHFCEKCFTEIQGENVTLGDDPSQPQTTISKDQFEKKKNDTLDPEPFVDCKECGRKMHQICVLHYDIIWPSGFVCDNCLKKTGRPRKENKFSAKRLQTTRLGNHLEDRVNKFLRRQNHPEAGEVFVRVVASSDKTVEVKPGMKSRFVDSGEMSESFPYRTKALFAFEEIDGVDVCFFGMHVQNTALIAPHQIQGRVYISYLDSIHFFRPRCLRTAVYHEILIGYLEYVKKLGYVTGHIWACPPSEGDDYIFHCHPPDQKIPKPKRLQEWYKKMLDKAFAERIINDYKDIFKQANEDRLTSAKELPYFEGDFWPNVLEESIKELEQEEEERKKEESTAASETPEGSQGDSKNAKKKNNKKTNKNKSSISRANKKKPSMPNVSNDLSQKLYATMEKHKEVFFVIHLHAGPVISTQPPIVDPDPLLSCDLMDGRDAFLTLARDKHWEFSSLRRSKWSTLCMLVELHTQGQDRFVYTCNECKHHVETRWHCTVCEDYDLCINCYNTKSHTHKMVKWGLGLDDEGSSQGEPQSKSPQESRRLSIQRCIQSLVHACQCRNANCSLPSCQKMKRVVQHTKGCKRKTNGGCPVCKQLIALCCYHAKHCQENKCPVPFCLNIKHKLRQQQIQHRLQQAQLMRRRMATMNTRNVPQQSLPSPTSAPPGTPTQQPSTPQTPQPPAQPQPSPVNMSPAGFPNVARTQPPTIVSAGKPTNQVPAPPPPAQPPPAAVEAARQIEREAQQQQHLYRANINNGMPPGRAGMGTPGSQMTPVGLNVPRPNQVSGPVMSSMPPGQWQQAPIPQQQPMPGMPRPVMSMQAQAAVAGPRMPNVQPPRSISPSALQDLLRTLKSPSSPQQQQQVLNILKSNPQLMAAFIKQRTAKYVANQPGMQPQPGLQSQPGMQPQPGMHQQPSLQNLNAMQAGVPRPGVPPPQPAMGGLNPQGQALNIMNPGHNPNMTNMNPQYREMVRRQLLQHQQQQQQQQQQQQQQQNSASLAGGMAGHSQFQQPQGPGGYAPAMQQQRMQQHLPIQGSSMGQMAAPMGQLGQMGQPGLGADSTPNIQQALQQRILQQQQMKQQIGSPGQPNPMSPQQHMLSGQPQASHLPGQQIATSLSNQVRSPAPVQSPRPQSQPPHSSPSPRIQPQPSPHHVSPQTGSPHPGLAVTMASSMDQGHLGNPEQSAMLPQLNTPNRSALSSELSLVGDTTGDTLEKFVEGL

Results are given in words; binding and its absence hold for the method and conditions named. In cells and extracts the contact can be indirect. A yes stands for co-enrichment or nearness to the bait. Other partners may have been found.

Substrate in the experiment: CBP immunoprecipitated for the mass spectrometry screen of CBP-binding proteins (UniProt P45481)
The experiment can be described thus: affinity purification with mass spectrometry; immunoprecipitation of CBP followed by mass spectrometry (unique peptides >= 1); cells not given.

B1: Trim24 found by mass spectrometry in the CBP immunoprecipitate (protein, UniProt Q64127 1-1051)
chain: MEVAVEKAAAAAAPAGGPAAAAPSGENEAESRQGPDSESGGEASRLNLLDTCAVCHQNIQSRVPKLLPCLHSFCQRCLPAPQRYLMLTAPALGSAETPPPAPAPAPAPGSPAGGPSPFATQVGVIRCPVCSQECAERHIIDNFFVKDTTEVPSSTVEKSNQVCTSCEDNAEANGFCVECVEWLCKTCIRAHQRVKFTKDHTVRQKEEVSPEAVGVTSQRPVFCPFHKKEQLKLYCETCDKLTCRDCQLLEHKEHRYQFIEEAFQNQKVIIDTLITKLMEKTKYIKYTGNQIQNRIIEINQNQKQVEQDIKVAIFTLMVEINKKGKALLHQLESLAKDHRMKLMQQQQEVAGLSKQLEHVMHFSKWAVSSGSSTALLYSKRLITYRLRHLLRARCDASPVTNTTIQFHCDPSFWAQNIINLGSLVIEDKESQPQMPKQNPVVEQSSQPPGGLPSNQLSKFPTQISLAQLRLQHIQQQVMAQRQQVQRRPAPVGLPNPRMQGPIQQPSISHQHPPPRLINFQNHSPKPNGPVLPPYPQQLRYSPSQNVPRQTTIKPNPLQMAFLAQQAIKQWQISSVQAPPTTASSSSSTPSSPTITSAAGYDGKAFSSPMIDLSAPVGGSYNLPSLPDIDCSSTIMLDNIARKDTGVDHAQPRPPSNRTVQSPNSSVPSPGLAGPVTMTSVHPPIRSPSASSVGSRGSSGSSSKPAGADSTHKVPVVMLEPIRIKQENSGPPENYDFPVVIVKQESDEESRPQNTNYPRSILTSLLLNSSQSSASEETVLRSDAPDSTGDQPGLHQENSSNGKSEWSDASQKSPVHVGETRKEDDPNEDWCAVCQNGGELLCCEKCPKVFHLTCHVPTLTNFPSGEWICTFCRDLSKPEVDYDCDVPSHHSEKRKSEGLTKLTPIDKRKCERLLLFLYCHEMSLAFQDPVPLTVPDYYKIIKNPMDLSTIKKRLQEDYCMYTKPEDFVADFRLIFQNCAEFNEPDSEVANAGIKLESYFEELLKNLYPEKRFPKVEFRHEAEDCKFSDDSDDDFVQPRKKRLKSTEDRQLLK
Turning to B1, the binding result is “binds”.
